Test system: vesicular structures in dSH-SY5Y cells
Experiment: Immunogold TEM of cells exposed to dGAE-488 (vesicle diameter)
Format: cell-based, human

For “dGAE-488: dGAE covalently labelled with Alexa Fluor 488”, the vesicle diameter (10 μM soluble dGAE-488, 24 h, buffer 303.7±20.0 nm) was 448.4±22.5 nm and the vesicle diameter (figure legend: 1 μM soluble dGAE-488, 24 h, buffer 303.7±20.03) was 478.4±22.48.

— US20230266303A1, “SYSTEM” (GTINVENT LIMITED, priority 2020, published 2023)
